# Measurements from the supplement of paper PMC8728848.
# Some of the results follow.
# B1: OS9-MRH (Homo sapiens), Q13438 (protein)
# chain: IPELLSPMRDAPCLLKTKDWWTYEFCYGRHIQQYHMEDSEIKGEVLYLGYYQSAFDWDDETAKASKQHRLKRYHSQTYGNGSKCDLNGRPREAEVRFLCDEGAGISGDYIDRVDEPLSCSYVLTIRTPRLCPHPLLRPPPSAAPQAI
# How the values were obtained:
# Assay in all cases: glycan array binding signal (z-score within array); higher = stronger binding
# Details in all cases: glycan notation: IUPAC condensed, linker removed
# [1] = biological target: Neu5Ac(a2-6)Gal(b1-4)GlcNAc(b1-2)Man(a1-3)[GlcNAc(b1-4)][Neu5Ac(a2-6)Gal(b1-4)GlcNAc(b1-2)Man(a1-6)]Man(b1-4)GlcNAc(b1-4)GlcNAc
# Method in brief: (§1)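 Arrays were curated from the Consortium for Functional Glycomics database, 3228 in total, and kept only where the protein sequence was available. Binding is expressed as a within-array Z-score. This score was averaged across arrays of the same protein sequence at different concentrations or buffers and across linkers, and negative values can be read as non-binding.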
# [2] = biological target: Neu5Ac(a2-6)Gal(b1-4)GlcNAc(b1-2)Man(a1-3)[Man(a1-6)]Man(b1-4)GlcNAc(b1-4)GlcNAc
# Method in brief: as §1
# [3] = biological target: Neu5Ac(a2-6)Gal(b1-4)GlcNAc(b1-2)Man(a1-3)[Neu5Ac(a2-3)Gal(b1-4)GlcNAc(b1-2)Man(a1-6)]Man(b1-4)GlcNAc(b1-4)GlcNAc
# Method in brief: as §1
# [4] = biological target: Neu5Ac(a2-6)Gal(b1-4)GlcNAc(b1-2)Man(a1-3)[Neu5Ac(a2-6)Gal(b1-4)GlcNAc(b1-2)Man(a1-6)]Man(b1-4)GlcNAc(b1-4)GlcNAc
# Method in brief: as §1
# [5] = biological target: Neu5Ac(a2-6)Gal(b1-4)GlcNAc(b1-2)Man(a1-3)[Neu5Ac(a2-6)Gal(b1-4)GlcNAc(b1-2)Man(a1-6)]Man(b1-4)GlcNAc(b1-4)[Fuc(a1-6)]GlcNAc
# Method in brief: as §1
# [6] = biological target: Neu5Ac(a2-6)Gal(b1-4)GlcNAc(b1-2)Man(a1-6)Man(b1-4)GlcNAc(b1-4)GlcNAc
# Method in brief: as §1
# [7] = biological target: Neu5Ac(a2-6)Gal(b1-4)GlcNAc(b1-2)Man(a1-6)[Gal(b1-4)GlcNAc(b1-2)Man(a1-3)]Man(b1-4)GlcNAc(b1-4)GlcNAc
# Method in brief: as §1
# [8] = biological target: Neu5Ac(a2-6)Gal(b1-4)GlcNAc(b1-2)Man(a1-6)[GlcNAc(b1-2)Man(a1-3)]Man(b1-4)GlcNAc(b1-4)GlcNAc
# Method in brief: as §1
# [9] = biological target: Neu5Ac(a2-6)Gal(b1-4)GlcNAc(b1-2)Man(a1-6)[Man(a1-3)]Man(b1-4)GlcNAc(b1-4)GlcNAc
# Method in brief: as §1
# [10] = biological target: Neu5Ac(a2-6)Gal(b1-4)GlcNAc(b1-2)[Neu5Ac(a2-6)Gal(b1-4)GlcNAc(b1-4)]Man(a1-3)[GlcNAc(b1-4)][Neu5Ac(a2-6)Gal(b1-4)GlcNAc(b1-2)[Neu5Ac(a2-6)Gal(b1-4)GlcNAc(b1-6)]Man(a1-6)]Man(b1-4)GlcNAc(b1-4)GlcNAc
# Method in brief: as §1
# [11] = biological target: Neu5Ac(a2-6)Gal(b1-4)GlcNAc(b1-2)[Neu5Ac(a2-6)Gal(b1-4)GlcNAc(b1-4)]Man(a1-3)[GlcNAc(b1-4)][Neu5Ac(a2-6)Gal(b1-4)GlcNAc(b1-4)Man(a1-6)]Man(b1-4)GlcNAc(b1-4)GlcNAc
# Method in brief: as §1
# [12] = biological target: Neu5Ac(a2-6)Gal(b1-4)GlcNAc(b1-2)[Neu5Ac(a2-6)Gal(b1-4)GlcNAc(b1-6)]Man(a1-6)[Neu5Ac(a2-6)Gal(b1-4)GlcNAc(b1-2)Man(a1-3)][GlcNAc(b1-4)]Man(b1-4)GlcNAc(b1-4)GlcNAc
# Method in brief: as §1
# [13] = biological target: Neu5Ac(a2-6)Gal(b1-4)GlcNAc(b1-3)Gal(b1-3)GlcNAc
# Method in brief: as §1
# [14] = biological target: Neu5Ac(a2-6)Gal(b1-4)GlcNAc(b1-3)Gal(b1-4)GlcNAc
# Method in brief: as §1
# [15] = biological target: Neu5Ac(a2-6)Gal(b1-4)GlcNAc(b1-3)Gal(b1-4)GlcNAc(b1-2)Man(a1-3)[Neu5Ac(a2-6)Gal(b1-4)GlcNAc(b1-3)Gal(b1-4)GlcNAc(b1-2)Man(a1-6)]GalNAc
# Method in brief: as §1
# [16] = biological target: Neu5Ac(a2-6)Gal(b1-4)GlcNAc(b1-3)Gal(b1-4)GlcNAc(b1-3)Gal(b1-4)GlcNAc
# Method in brief: as §1
# [17] = biological target: Neu5Ac(a2-6)Gal(b1-4)GlcNAc(b1-3)Gal(b1-4)GlcNAc(b1-3)Gal(b1-4)GlcNAc(b1-2)Man(a1-3)[Neu5Ac(a2-6)Gal(b1-4)GlcNAc(b1-3)Gal(b1-4)GlcNAc(b1-3)Gal(b1-4)GlcNAc(b1-2)Man(a1-6)]GalNAc
# Method in brief: as §1
# [18] = biological target: Neu5Ac(a2-6)Gal(b1-4)GlcNAc(b1-3)Gal(b1-4)GlcNAc(b1-3)GalNAc
# Method in brief: as §1
# [19] = biological target: Neu5Ac(a2-6)Gal(b1-4)GlcNAc(b1-3)Gal(b1-4)GlcNAc(b1-3)[Neu5Ac(a2-6)Gal(b1-4)GlcNAc(b1-3)Gal(b1-4)GlcNAc(b1-6)]GalNAc
# Method in brief: as §1
# [20] = biological target: Neu5Ac(a2-6)Gal(b1-4)GlcNAc(b1-3)Gal(b1-4)GlcNAc(b1-6)[Gal(b1-3)]GalNAc
# Method in brief: as §1
# [21] = biological target: Neu5Ac(a2-6)Gal(b1-4)GlcNAc(b1-3)Gal(b1-4)[Fuc(a1-3)]GlcNAc(b1-3)Gal(b1-4)[Fuc(a1-3)]GlcNAc
# Method in brief: as §1
# [22] = biological target: Neu5Ac(a2-6)Gal(b1-4)GlcNAc(b1-3)GalNAc
# Method in brief: as §1
# [23] = biological target: Neu5Ac(a2-6)Gal(b1-4)GlcNAc(b1-3)[Neu5Ac(a2-6)Gal(b1-4)GlcNAc(b1-6)]GalNAc
# Method in brief: as §1
# [24] = biological target: Neu5Ac(a2-6)Gal(b1-4)GlcNAc(b1-6)GalNAc
# Method in brief: as §1
# [25] = biological target: Neu5Ac(a2-6)Gal(b1-4)GlcNAc(b1-6)[Gal(b1-3)GlcNAc(b1-3)]Gal(b1-4)Glc
# Method in brief: as §1
# [26] = biological target: Neu5Ac(a2-6)Gal(b1-4)GlcNAc(b1-6)[Gal(b1-3)]GalNAc
# Method in brief: as §1
# [27] = biological target: Neu5Ac(a2-6)Gal(b1-4)GlcNAc6S
# Method in brief: as §1
# Neu5Ac(a2-6)GalNAc = biological target: Neu5Ac(a2-6)GalNAc
# Method in brief: as §1
# [28] = biological target: Neu5Ac(a2-6)GalNAc(b1-4)GlcNAc
# Method in brief: as §1
# [29] = biological target: Neu5Ac(a2-6)GalNAc(b1-4)GlcNAc6S
# Method in brief: as §1
# [30] = biological target: Neu5Ac(a2-6)GlcNAc(b1-4)GlcNAc
# Method in brief: as §1
binder,measurement,setting,value
B1,glycan array binding signal (z-score),[1],-0.893
same,glycan array binding signal (z-score),[2],-0.807
same,glycan array binding signal (z-score),[3],-1.6
same,glycan array binding signal (z-score),[4],0.449
same,glycan array binding signal (z-score),[5],1.78
same,glycan array binding signal (z-score),[6],-0.495
same,glycan array binding signal (z-score),[7],-0.439
same,glycan array binding signal (z-score),[8],-0.514
same,glycan array binding signal (z-score),[9],1.05
same,glycan array binding signal (z-score),[10],1.11
same,glycan array binding signal (z-score),[11],-0.99
same,glycan array binding signal (z-score),[12],-1.08
same,glycan array binding signal (z-score),[13],-0.586
same,glycan array binding signal (z-score),[14],-1.39
same,glycan array binding signal (z-score),[15],0.882
same,glycan array binding signal (z-score),[16],-0.378
same,glycan array binding signal (z-score),[17],1.3
same,glycan array binding signal (z-score),[18],-0.436
same,glycan array binding signal (z-score),[19],0.501
same,glycan array binding signal (z-score),[20],-0.293
same,glycan array binding signal (z-score),[21],-0.99
same,glycan array binding signal (z-score),[22],-0.745
same,glycan array binding signal (z-score),[23],-1.59
same,glycan array binding signal (z-score),[24],-1.14
same,glycan array binding signal (z-score),[25],1.74
same,glycan array binding signal (z-score),[26],-0.081
same,glycan array binding signal (z-score),[27],-0.552
same,glycan array binding signal (z-score),Neu5Ac(a2-6)GalNAc,-1
same,glycan array binding signal (z-score),[28],5.26
same,glycan array binding signal (z-score),[29],0.453
same,glycan array binding signal (z-score),[30],1.28

# An excerpt of these results, bar-delimited:
binder | measurement | setting | value
B1 | glycan array binding signal (z-score) | [4] | 0.449
same | glycan array binding signal (z-score) | [5] | 1.78
same | glycan array binding signal (z-score) | [6] | -0.495
same | glycan array binding signal (z-score) | [7] | -0.439
same | glycan array binding signal (z-score) | [8] | -0.514
same | glycan array binding signal (z-score) | [9] | 1.05
